From PubChem BioAssay AID445 (National Center for Advancing Translational Sciences (NCATS), 2006)
The list shows a part of the results. Further columns of the screen follow, without active or inactive calls. Compounds called inactive in the main read-out are mostly missing here. The note in brackets gives the kind of curve behind each potency; many fits are weak.

Experiment: IkB Signaling
Settings: ABC-DLBCL IkBa-CBG/CBR dual luciferase ratio (green luciferase fused to IkBa over red control in OCI-Ly3 lymphoma cells), 4 h; measured here: control luc red channel unless noted
How it was run: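 Curves were fitted separately to fusion (green), unfused (red) and ratio luminescence, then classed by r2, magnitude and activity. Cells: OCI-Ly3, 4 h compound plus doxycycline at 37C; 10 uM MG-132 defined full response.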

Structure (SMILES) | AC50
Cc1cccc(N(C)C(CNS(=O)(=O)c2ccccc2)c2ccccc2)c1 (stereo unspecified) | 12.6 µM [falling, partial curve]
CCN(CC)CCNC(=O)C(=O)NCC(c1cccnc1)N1CCN(c2ccccc2)CC1 (stereo unspecified) | 39.8 µM [falling, single point]
CCC(=O)c1ccc(OCC(O)Cn2c(C)nc3ccccc32)cc1 (stereo unspecified) | 5.01 µM [falling, partial curve]
CC(C)S(=O)(=O)c1oc(-c2ccc(F)cc2)nc1S(=O)(=O)c1ccccc1 | 1.58 µM [falling, partial curve]
COc1cc(NC(=O)c2nn(-c3ccc(C)cc3)c(=O)c3c2c2ccccc2n3C)cc(OC)c1OC | 20 µM [rising, partial curve, poor fit]
CCOC(=O)c1ccccc1NS(=O)(=O)c1ccc(N2CCCCS2(=O)=O)cc1 | 15.8 µM [falling, partial curve]
CCOc1ccc(-n2nc(CO)c(C(=O)NCc3cccnc3)n2)cc1 | 15.8 µM [falling, single point]
COc1cccc(N2CCN(C(=O)c3cc4c(=O)n(Cc5ccccc5)ccc4nc3C)CC2)c1 | 25.1 µM [falling, single point]
Cc1cccn2c(=O)c(C(=O)NCc3ccccc3Cl)c(O)nc12 | 12.6 µM [falling, partial curve]
Cc1ccc(NC(=O)CC2SC3=NCCN3C2=O)cc1 (stereo unspecified) | 12.6 µM [falling, partial curve]
COc1cc(C)ccc1OCCCn1c(-c2ccc(Cl)cc2)nc2ccccc2c1=O | 12.6 µM [falling, partial curve]
Cc1cccc(NC(=O)c2sc3nc4c(cc3c2N)CCCCCC4)c1C | 1.26 µM [rising, full curve] [measured here: IkB-luc green channel]
COc1ccc(-n2nc(C(=O)Nc3ccc(Cl)cn3)c3c4ccccc4n(C)c3c2=O)cc1Cl | 12.6 µM [falling, partial curve]
Cc1ccc(CCNC(=O)c2cc(Nc3ccc(C)c(C)c3)nc3ccccc23)cc1 | 0.2 µM [falling, full curve, poor fit]
COc1ccc(C2C(C(N)=O)=C(C)Nc3nc(CCCO)nn32)cc1 (stereo unspecified) | 1 µM [rising, full curve]
CC(C)C1C(=O)Nc2ccc(S(=O)(=O)NCc3ccc(Cl)cc3)cc21 (stereo unspecified) | 20 µM [falling, partial curve]
Cc1ccc(NC(=O)CSc2c3c(nc4ccccc24)CCCC3)cc1F | 12.6 µM [falling, partial curve]
NC(=O)c1nsnc1-c1ccccc1O | 12.6 µM [falling, partial curve]
CC(=O)c1cccc(NC(=O)c2c(-c3ccccc3)c(-c3ccccc3)nn(C)c2=O)c1 | 25.1 µM [falling, partial curve]
Cc1cc(C(F)(F)F)nn1-c1nc(-c2ccccc2)cc(C(F)(F)F)n1 | 3.16 µM [rising, full curve, poor fit]
Cc1cc(=O)n(CC(=O)Nc2ccc([N+](=O)[O-])cc2)c(-n2nc(C)cc2C)n1 | 6.31 µM [rising, single point]

Structure (SMILES) | AC50
COc1ccc(CCN2C(=O)c3[nH]nc(-c4ccccc4O)c3C2c2cccc(OC)c2)cc1 (stereo unspecified) | 12.6 µM [falling, partial curve]
CCOC(=O)c1ccccc1NC(=O)Cn1c(=O)n(-c2cccc(C)c2)c(=O)c2c1c1cc(C)ccc1n2C | 1.58 µM [falling, full curve]
COc1ccc2c(C)cc(SCC(=O)Nc3nsc(-c4ccccc4C)n3)nc2c1 | 7.94 µM [falling, full curve, poor fit]
O=C(NCC(c1ccc2c(c1)OCO2)N1CCOCC1)c1cccc(Cl)c1 (stereo unspecified) | 0.0794 µM [rising, full curve, poor fit]
Clc1ccc2c(N3CCCC3)ccnc2c1 | 2.51 µM [falling, full curve]
O=C(NCc1ccc(Cl)cc1)C(=O)NCC(c1cccs1)S(=O)(=O)c1cccs1 (stereo unspecified) | 12.6 µM [falling, partial curve]
Clc1cccc(-n2ncc3c(N4CCC(Cc5ccccc5)CC4)ncnc32)c1 | 3.16 µM [falling, partial curve, poor fit]
CCOC(=O)c1c(C)oc2nc(C)nc(NCc3ccc(OC)cc3OC)c12 | 25.1 µM [falling, single point]
O=C(CSc1nncn2c1cc1sccc12)Nc1ccc(Br)cc1F | 10 µM [falling, partial curve]
O=C(Cn1c(=O)nc(-c2ccccc2)c2ccccc21)NCc1ccc(Cl)cc1 | 31.6 µM [falling, single point]
CCc1ccc(NC(=O)CCn2nc(C)c(S(=O)(=O)N3CCCCC3)c2C)cc1 | 3.98 µM [falling, partial curve]
CCOC(=O)C1(C)C=C(Nc2cccc(C(=O)O)c2)C(=O)N1c1cccc(C(=O)O)c1 (stereo unspecified) | 12.6 µM [falling, partial curve]
CCCCc1nn2c(=O)cc(COC(=O)c3ccc(NC(=O)c4ccccc4C)cc3)nc2s1 | 0.0398 µM [falling, full curve]
COc1cc2c(cc1OC)C(COc1ccccc1OC)N(C(=O)COc1ccc(Cl)cc1)CC2 (stereo unspecified) | 20 µM [falling, partial curve]
COc1ccc(OC)c(CNC(=O)Cc2ccc(NC(=O)N3CCSc4ncccc43)cc2)c1 | 25.1 µM [falling, single point]
c1ccc(-c2nc(NCCCN3CCOCC3)c3ccccc3n2)cc1 | 12.6 µM [falling, partial curve]
CN(c1ccccc1)S(=O)(=O)c1ccc(NC(=O)c2cc(=O)c3ccccc3o2)cc1 | 10 µM [falling, partial curve]
COc1ccc(Nc2cc(C(=O)NCCCN3CCN(c4ccc(OC)cc4)CC3)c3ccccc3n2)cc1 | 31.6 µM [falling, single point]
O=C(CCn1cnnn1)Nc1ccc(F)cc1 | 0.0501 µM [falling, full curve]
Cc1ccc(CNC(=O)c2coc(=O)c3ccccc23)o1 | 20 µM [rising, partial curve] [measured here: IkB-luc green channel]
COc1ccc(-n2ncc(C(=O)NCCc3ccsc3)c2C2CCN(C(=O)OC(C)(C)C)CC2)cc1 | 10 µM [falling, partial curve]

Structure (SMILES) | AC50
COc1cccc(-c2nc(-c3ccccc3)no2)c1 | 15.8 µM [falling, partial curve]
Cc1noc(-c2ccc(N3CCCCC3)c([N+](=O)[O-])c2)n1 | 12.6 µM [falling, partial curve]
Cc1cc(NC(=O)c2cccc(Cl)c2)ccc1-c1cc2ccccc2oc1=O | 3.98 µM [falling, full curve]
CC(=O)N1CCCc2cc(S(=O)(=O)N3CCC(C(=O)NC4CCC(C)CC4)CC3)ccc21 (stereo unspecified) | 25.1 µM [falling, partial curve, poor fit]
COC(=O)c1ccc2c(=O)n(CCCCCC(=O)N3CCN(c4ccccc4)CC3)c(=O)[nH]c2c1 | 2 µM [falling, partial curve]
CCn1c(C(=O)NCc2ccccc2C)cc2oc3ccccc3c21 | 31.6 µM [falling, single point]
COC(=O)c1ccccc1NC(=O)c1ncoc1-c1ccco1 | 39.8 µM [rising, single point]
Cc1nc(-c2cccc(NC(=O)Nc3ccc([N+](=O)[O-])cc3)c2)no1 | 39.8 µM [falling, single point]
Cc1ccccc1OCCSc1nc2ccc(NC(=O)c3ccccc3)cc2s1 | 15.8 µM [falling, single point]
COc1cccc(Nc2ncc3ncc(=O)n(C4CC4)c3n2)c1 | 2 µM [falling, partial curve] [measured here: IkB-luc green channel]
O=C(C1CC1)N1CCc2cc(S(=O)(=O)NCC3COc4ccccc4O3)ccc21 (stereo unspecified) | 12.6 µM [falling, partial curve]
Cc1ccc(N(CC(=O)N2CCN(c3ccccc3F)CC2)S(=O)(=O)c2c(C)noc2C)cc1 | 3.98 µM [falling, partial curve]
COc1ccc(Cc2noc(-c3ccc(C)cc3)n2)cc1 | 20 µM [rising, partial curve, poor fit] [measured here: IkB-luc green channel]
COc1cc2c(cc1OC)C(c1ccc(F)cc1)N(c1cccc(C#N)c1)C(=O)C2 (stereo unspecified) | 15.8 µM [falling, single point]
Cc1cccc(Nc2ncnc3nc[nH]c23)c1 | 15.8 µM [falling, partial curve]
O=C(Nc1cccc(C(=O)OCc2cc(=O)n3nc(C4CC4)sc3n2)c1)c1cccc(F)c1 | 0.398 µM [falling, full curve, poor fit]
COc1cc2c(cc1OC)C(COc1ccc3c(C)cc(=O)oc3c1)N(C(=O)c1cccc(C)c1)CC2 (stereo unspecified) | 0.398 µM [falling, full curve, poor fit]
CCOc1ccc(-n2c(SCC(=O)NCC3CCCO3)nc3c([nH]c4ccccc43)c2=O)cc1 (stereo unspecified) | 1 µM [rising, full curve]
COc1cccc(-c2csc(N3CCN(C(=O)Nc4ccccc4OC)CC3)n2)c1 | 20 µM [falling, partial curve]

2 successive compounds from above, quoted:
Structure (SMILES) | AC50
Cc1noc(-c2ccc(N3CCCCC3)c([N+](=O)[O-])c2)n1 | 12.6 µM [falling, partial curve]
Cc1cc(NC(=O)c2cccc(Cl)c2)ccc1-c1cc2ccccc2oc1=O | 3.98 µM [falling, full curve]
